Experimental data as given in patent publication US5356934A, “Selected serotonin subtype receptor agonist to treat sleep apnea” (Eli Lilly and Company, priority 1993, dated 1994).

Sequences of proteins named here, by UniProt entry; tags and fusion partners are left off. Residues count along the entry.
UniProt P35563, 24-483: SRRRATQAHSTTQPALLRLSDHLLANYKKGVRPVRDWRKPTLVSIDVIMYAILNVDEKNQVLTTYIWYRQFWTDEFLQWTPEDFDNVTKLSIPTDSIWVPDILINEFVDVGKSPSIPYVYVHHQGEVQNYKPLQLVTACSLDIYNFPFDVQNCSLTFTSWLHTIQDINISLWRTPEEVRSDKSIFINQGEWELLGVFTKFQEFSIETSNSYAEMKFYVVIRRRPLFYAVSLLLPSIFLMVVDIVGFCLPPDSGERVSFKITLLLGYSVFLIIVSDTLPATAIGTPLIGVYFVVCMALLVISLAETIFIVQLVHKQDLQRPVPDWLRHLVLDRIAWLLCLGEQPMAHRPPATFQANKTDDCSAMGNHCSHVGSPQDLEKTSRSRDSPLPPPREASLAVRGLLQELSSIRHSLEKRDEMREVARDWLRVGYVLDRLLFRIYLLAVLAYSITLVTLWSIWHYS
UniProt A0AAA9SBU1, 33-457: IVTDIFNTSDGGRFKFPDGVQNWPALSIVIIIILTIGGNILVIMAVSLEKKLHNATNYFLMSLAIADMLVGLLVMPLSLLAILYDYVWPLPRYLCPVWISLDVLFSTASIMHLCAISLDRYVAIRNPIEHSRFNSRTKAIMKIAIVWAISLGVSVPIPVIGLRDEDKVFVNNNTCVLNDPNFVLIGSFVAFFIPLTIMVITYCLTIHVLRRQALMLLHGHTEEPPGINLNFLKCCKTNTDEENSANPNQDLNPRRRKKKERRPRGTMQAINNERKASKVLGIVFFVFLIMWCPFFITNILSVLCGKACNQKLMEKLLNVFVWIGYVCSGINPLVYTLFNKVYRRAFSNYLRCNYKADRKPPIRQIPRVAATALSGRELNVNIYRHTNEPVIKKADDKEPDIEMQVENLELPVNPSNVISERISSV

Key:
[1] = target: 5HT3 receptors (Rattus norvegicus, UniProt P35563); assay: biochemical
Method: (§1) Binding was terminated by filtering samples under reduced pressure through glass fiber (GFB) filters. […] Radioactivity was measured with a liquid scintillation spectrometer.

[2] = target: 5HT1C receptor (Bos taurus, UniProt A0AAA9SBU1); conditions: read-out: Inhibition of Radioligand Binding to 5HT Receptor 1C (IC50); bovine choroid plexus membranes; 2 nM 3H-mesulergine; mean of three experiments
Method: as §1

CNCC[C@@H](Oc1ccc(C(F)(F)F)cc1)c1ccccc1 [( -- R)-fluoxetine] showed an IC50 [1] of 16 µM and an IC50 [2] of 0.19 µM.
